Publication PMC12513837
These are yes or no findings as the source states them, for the method shown. Binding seen in cells or lysates may run through a third protein. Some results given as binding are weak or reduced against the parent protein; the word gives no strength.

The chains behind the UniProt entries cited, without tags or fusion partners.
UniProt P10275: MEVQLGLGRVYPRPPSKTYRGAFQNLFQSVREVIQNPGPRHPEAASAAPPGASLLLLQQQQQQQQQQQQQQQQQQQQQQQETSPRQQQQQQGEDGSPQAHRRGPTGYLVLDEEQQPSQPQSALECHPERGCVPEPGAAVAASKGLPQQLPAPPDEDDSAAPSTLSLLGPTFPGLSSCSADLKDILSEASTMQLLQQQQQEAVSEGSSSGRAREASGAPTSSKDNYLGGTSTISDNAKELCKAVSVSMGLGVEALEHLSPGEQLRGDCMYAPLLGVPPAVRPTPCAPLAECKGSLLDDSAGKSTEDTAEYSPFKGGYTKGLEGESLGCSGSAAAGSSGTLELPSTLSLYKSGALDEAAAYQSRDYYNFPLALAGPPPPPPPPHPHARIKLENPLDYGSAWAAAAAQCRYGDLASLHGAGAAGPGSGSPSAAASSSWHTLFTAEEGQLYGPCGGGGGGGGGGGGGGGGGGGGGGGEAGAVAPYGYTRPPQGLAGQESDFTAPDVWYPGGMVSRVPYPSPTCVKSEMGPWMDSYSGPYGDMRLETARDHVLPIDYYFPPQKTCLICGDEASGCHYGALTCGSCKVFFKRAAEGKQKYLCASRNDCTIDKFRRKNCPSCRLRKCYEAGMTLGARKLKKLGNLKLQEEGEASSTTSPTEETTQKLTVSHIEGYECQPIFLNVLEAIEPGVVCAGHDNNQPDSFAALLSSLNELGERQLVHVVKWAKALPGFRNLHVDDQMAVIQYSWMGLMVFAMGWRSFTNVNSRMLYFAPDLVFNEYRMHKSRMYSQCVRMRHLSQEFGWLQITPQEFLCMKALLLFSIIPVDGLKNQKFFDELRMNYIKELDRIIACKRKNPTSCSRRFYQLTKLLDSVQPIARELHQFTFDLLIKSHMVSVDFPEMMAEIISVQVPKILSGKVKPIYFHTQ
UniProt O15379: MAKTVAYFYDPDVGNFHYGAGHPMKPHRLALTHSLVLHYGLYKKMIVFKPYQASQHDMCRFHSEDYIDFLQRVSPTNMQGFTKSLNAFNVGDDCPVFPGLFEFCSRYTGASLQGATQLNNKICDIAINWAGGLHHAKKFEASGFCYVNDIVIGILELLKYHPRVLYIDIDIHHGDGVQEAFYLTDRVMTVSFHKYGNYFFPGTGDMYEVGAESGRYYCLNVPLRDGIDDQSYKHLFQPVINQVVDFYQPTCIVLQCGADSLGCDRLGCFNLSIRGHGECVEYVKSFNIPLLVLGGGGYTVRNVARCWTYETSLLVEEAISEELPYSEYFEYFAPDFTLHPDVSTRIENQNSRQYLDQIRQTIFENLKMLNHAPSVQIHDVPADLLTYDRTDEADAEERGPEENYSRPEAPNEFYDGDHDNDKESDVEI

Biological target: androgen receptor (UniProt P10275)
Assay: co-IP; cells lysed in IP lysis buffer with protease inhibitors; 500 µg lysate incubated overnight with 5 µg AR antibody (Abcam) and Protein G Dynabeads; beads washed three times with IP lysis buffer; immunoblot; cells treated with 100 nM CBPD-409 (p300/CBP degrader) compared with control

- binding: binds
Substance: histone deacetylase 3 (from UniProt O15379 1-428)
